The source of these data is paper PMC6336319, “EBNA3C facilitates RASSF1A downregulation through ubiquitin-mediated degradation and promoter hypermethylation to drive B-cell proliferation” (PLoS Pathogens, 2019).

By UniProt entry, the sequences of proteins in these tests, tags left out. Where a name states a change or a piece, a line headed by the entry shows the natural chain unless it says otherwise. Chains listed by the source or under a name are the forms on record and can include a tag or linker. Residues count along the entry.
UniProt P03204: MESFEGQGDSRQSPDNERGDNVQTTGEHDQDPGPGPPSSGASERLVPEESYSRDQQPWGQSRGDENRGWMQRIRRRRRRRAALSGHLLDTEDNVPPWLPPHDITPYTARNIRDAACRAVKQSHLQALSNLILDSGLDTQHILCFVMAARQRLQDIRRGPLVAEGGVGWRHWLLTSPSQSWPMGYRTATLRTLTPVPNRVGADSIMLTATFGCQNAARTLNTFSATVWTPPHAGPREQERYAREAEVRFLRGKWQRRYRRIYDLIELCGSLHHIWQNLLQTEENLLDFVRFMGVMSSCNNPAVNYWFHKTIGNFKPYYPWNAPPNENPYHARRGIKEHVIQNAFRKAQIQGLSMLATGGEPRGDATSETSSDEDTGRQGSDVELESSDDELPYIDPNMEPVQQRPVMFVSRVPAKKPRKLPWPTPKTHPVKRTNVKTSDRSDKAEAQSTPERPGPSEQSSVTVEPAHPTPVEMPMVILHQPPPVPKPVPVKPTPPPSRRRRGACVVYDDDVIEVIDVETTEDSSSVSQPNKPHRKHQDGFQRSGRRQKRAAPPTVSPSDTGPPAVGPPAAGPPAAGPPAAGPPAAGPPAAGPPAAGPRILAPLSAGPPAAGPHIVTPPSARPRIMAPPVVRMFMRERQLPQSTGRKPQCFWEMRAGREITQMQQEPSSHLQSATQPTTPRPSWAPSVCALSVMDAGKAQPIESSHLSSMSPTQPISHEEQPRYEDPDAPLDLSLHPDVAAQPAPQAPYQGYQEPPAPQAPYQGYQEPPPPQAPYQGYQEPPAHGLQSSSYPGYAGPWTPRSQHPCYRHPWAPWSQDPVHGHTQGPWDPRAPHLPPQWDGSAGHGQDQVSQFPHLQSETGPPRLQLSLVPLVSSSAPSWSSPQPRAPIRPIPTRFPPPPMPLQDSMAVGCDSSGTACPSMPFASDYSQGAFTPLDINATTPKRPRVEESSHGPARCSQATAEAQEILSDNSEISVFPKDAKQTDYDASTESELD
Flag-tagged EBNA3C 1-365: residues 1-365 of P03204

Test [1] concerns the target T1, Myc-tagged full-length RASSF1A (Ras association domain family isoform 1A) (human) (UniProt Q9NS23).
T1 sequence: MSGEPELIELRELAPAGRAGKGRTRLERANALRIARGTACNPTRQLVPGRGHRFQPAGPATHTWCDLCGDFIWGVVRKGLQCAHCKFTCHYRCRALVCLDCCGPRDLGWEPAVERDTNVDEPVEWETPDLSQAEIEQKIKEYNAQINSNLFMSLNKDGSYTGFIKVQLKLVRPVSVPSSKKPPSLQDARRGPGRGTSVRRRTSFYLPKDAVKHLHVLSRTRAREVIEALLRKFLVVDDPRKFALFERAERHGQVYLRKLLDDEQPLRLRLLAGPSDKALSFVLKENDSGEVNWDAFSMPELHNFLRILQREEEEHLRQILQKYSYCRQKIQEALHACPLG
Briefly: co-IP; Saos-2 cells co-transfected, lysed 48 h later in RIPA buffer (1% NP-40, 10 mM Tris pH 8.0, 2 mM EDTA, 150 mM NaCl); immunoprecipitation with 1 ug anti-Myc antibody, overnight at 4 °C; western blot with anti-Flag and anti-Myc.

Test [2] concerns the target Flag-tagged full-length EBNA3C (EBV-encoded nuclear antigen 3C) (Epstein-Barr virus) (UniProt P03204). Briefly: co-IP; Saos-2 cells co-transfected, lysed 48 h later in RIPA buffer (1% NP-40, 10 mM Tris pH 8.0, 2 mM EDTA, 150 mM NaCl); immunoprecipitation with 1 ug anti-Flag antibody, overnight at 4 °C; western blot with anti-Flag and anti-Myc.
The target of test [3] is Flag-tagged EBNA3C 1-365 (Epstein-Barr virus) (UniProt P03204). The description is as above.
The target of test [4] is EBNA3C of EBV-transformed lymphoblastoid cell lines LCL1 and LCL2 (Epstein-Barr virus) (UniProt P03204). Description: co-IP; 60 million B cells (BJAB, BJAB7, BJAB10; LCL1, LCL2) lysed in RIPA buffer; immunoprecipitation with 1 ug anti-EBNA3C antibody, overnight at 4 °C; western blot for the endogenous partner.
Test [5] addresses EBNA3C stably expressed in BJAB7 and BJAB10 cells (Epstein-Barr virus) (UniProt P03204). The test is described as above.

No constants are given. Whether binding was seen depends on the method and setting. Binding seen in cells or lysates may run through a third protein. Some entries that bind do so weakly or less than the wild type. For some assays here: Tags and fused reporters may be left off the sequences shown.

For the molecule “Flag-tagged full-length EBNA3C (EBV-encoded nuclear antigen 3C) (from UniProt P03204 1-992)”, in test [1], the binding result is reported as “binds”.

B1: Myc-tagged full-length RASSF1A (Ras association domain family isoform 1A) (natural protein, human, UniProt Q9NS23-2 1-340, looked up)
chain: MSGEPELIELRELAPAGRAGKGRTRLERANALRIARGTACNPTRQLVPGRGHRFQPAGPATHTWCDLCGDFIWGVVRKGLQCAHCKFTCHYRCRALVCLDCCGPRDLGWEPAVERDTNVDEPVEWETPDLSQAEIEQKIKEYNAQINSNLFMSLNKDGSYTGFIKVQLKLVRPVSVPSSKKPPSLQDARRGPGRGTSVRRRTSFYLPKDAVKHLHVLSRTRAREVIEALLRKFLVVDDPRKFALFERAERHGQVYLRKLLDDEQPLRLRLLAGPSDKALSFVLKENDSGEVNWDAFSMPELHNFLRILQREEEEHLRQILQKYSYCRQKIQEALHACPLG
notes: RASSF1A (Ras association domain family isoform 1A), full length, amplified from total RNA by RT-PCR and cloned into pA3M; also called Myc-RASSF1A; pA3M-RASSF1A; source: Saos-2, transfected, in lysate
With B1, the binding entry in test [2] and in test [3] was “binds” each time.

B2: endogenous RASSF1A (protein, UniProt Q9NS23-2 1-340)
chain: MSGEPELIELRELAPAGRAGKGRTRLERANALRIARGTACNPTRQLVPGRGHRFQPAGPATHTWCDLCGDFIWGVVRKGLQCAHCKFTCHYRCRALVCLDCCGPRDLGWEPAVERDTNVDEPVEWETPDLSQAEIEQKIKEYNAQINSNLFMSLNKDGSYTGFIKVQLKLVRPVSVPSSKKPPSLQDARRGPGRGTSVRRRTSFYLPKDAVKHLHVLSRTRAREVIEALLRKFLVVDDPRKFALFERAERHGQVYLRKLLDDEQPLRLRLLAGPSDKALSFVLKENDSGEVNWDAFSMPELHNFLRILQREEEEHLRQILQKYSYCRQKIQEALHACPLG
In the case of B2, the binding result in test [4] and in test [5] was “binds” throughout.
